Laboratory results taken from publication doi:10.1101/2020.10.02.323899.
No constants are given. Whether binding was seen depends on the method and setting. Binding seen in cells or lysates may run through a third protein. Binding calls can cover weak binding; strength is not graded here.

Target: glutathione S-transferase (GST)-fused Xenopus ADF/cofilin (XAC) (Xenopus)
Assay: pull-down

- binding: binds
B1: gelsolin (protein, UniProt P14885 1-417)
chain: FISKMGYPKQTQVQVLPESGETPLFKQFFKNWRDKEATDGMGVAYVPNHIAKIENVPFDVTVLHESPAMAAQHGMVDDGSGKKQIWRIENCEKVPVLESHYGQFYGGDSYIILYHYKSGGKQGQIIYTWQGDDSTKDEITASAILSAQLDEELGGGPVQVRVVQGKEPAHLISLFGGKPMIIYKGGTSREGGQTKDANVRLFQVRTSSSGFSRAVEVDNTASNLNSNDAFVLTTPSASYLWVGQGSTNVEKNGAKELLKILGVSASEIPEGQETDDFWGALGGKADYRTSARLKDKLNAHPPRLFACSNKTGRFIIEEVPGEISQDDLATDDVMLLDTWDQVYVWVGNEAQEDEKKEAIASAYKYIESDPANRDKRTPVAITKQGFEPPTFIGWFLGWEADYWDVDPLERAMAGLSS
